In the experiment the target is FLAG-STAT3 (UniProt P40763). Briefly: co-IP; HeLa cells transfected with FLAG-STAT3 or empty vector, infected with HSV-1 for 4 h; lysates immunoprecipitated with anti-FLAG antibody; western blot for FLAG, pSTAT3 Y705, PSPC1 and β-actin.

By UniProt entry, the sequences of proteins in these tests, tags left out.
UniProt P40763: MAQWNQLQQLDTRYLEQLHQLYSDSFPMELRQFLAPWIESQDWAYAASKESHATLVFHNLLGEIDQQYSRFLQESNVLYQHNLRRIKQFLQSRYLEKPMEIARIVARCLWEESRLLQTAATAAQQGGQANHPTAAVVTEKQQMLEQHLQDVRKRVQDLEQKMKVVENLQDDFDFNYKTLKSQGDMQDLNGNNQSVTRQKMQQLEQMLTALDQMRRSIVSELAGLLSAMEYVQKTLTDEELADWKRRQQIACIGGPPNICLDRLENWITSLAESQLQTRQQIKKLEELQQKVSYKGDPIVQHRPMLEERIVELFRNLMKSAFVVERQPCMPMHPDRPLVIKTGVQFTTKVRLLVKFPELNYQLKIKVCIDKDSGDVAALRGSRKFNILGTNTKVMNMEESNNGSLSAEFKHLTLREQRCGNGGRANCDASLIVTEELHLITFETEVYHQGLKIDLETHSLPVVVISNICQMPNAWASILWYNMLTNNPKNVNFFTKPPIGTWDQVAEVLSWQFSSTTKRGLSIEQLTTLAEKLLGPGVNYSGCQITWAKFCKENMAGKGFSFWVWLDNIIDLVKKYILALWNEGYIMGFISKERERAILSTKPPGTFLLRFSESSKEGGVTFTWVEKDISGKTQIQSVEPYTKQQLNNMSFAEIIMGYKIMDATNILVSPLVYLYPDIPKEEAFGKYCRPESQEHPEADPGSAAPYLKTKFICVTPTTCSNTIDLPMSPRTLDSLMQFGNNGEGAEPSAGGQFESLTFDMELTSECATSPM

No constants are given. Whether binding was seen depends on the method and setting. In cells and extracts the contact can be indirect. Some entries that bind do so weakly or less than the wild type.

B1: PSPC1 (paraspeckle component 1) (protein, UniProt Q8WXF1 1-523)
chain: MMLRGNLKQVRIEKNPARLRALESAVGESEPAAAAAMALALAGEPAPPAPAPPEDHPDEEMGFTIDIKSFLKPGEKTYTQRCRLFVGNLPTDITEEDFKRLFERYGEPSEVFINRDRGFGFIRLESRTLAEIAKAELDGTILKSRPLRIRFATHGAALTVKNLSPVVSNELLEQAFSQFGPVEKAVVVVDDRGRATGKGFVEFAAKPPARKALERCGDGAFLLTTTPRPVIVEPMEQFDDEDGLPEKLMQKTQQYHKEREQPPRFAQPGTFEFEYASRWKALDEMEKQQREQVDRNIREAKEKLEAEMEAARHEHQLMLMRQDLMRRQEELRRLEELRNQELQKRKQIQLRHEEEHRRREEEMIRHREQEELRRQQEGFKPNYMENREQEMRMGDMGPRGAINMGDAFSPAPAGNQGPPPMMGMNMNNRATIPGPPMGPGPAMGPEGAANMGTPMMPDNGAVHNDRFPQGPPSQMGSPMGSRTGSETPQAPMSGVGPVSGGPGGFGRGSQGGNFEGPNKRRRY
For B1, the binding result is on record as “binds”.
